Patent US20120245221A1, “ANTI-APOPTOTIC AGENTS AND USES THEREOF” (priority 2009, published 2012)
Read-outs that look alike come from different tables or passages of the source. For some assays here: The name of at least one read-out is uncertain. For some assays here: At least one compound was matched to its structure with a doubt left.

B1: PDNF: Trypanosoma cruzi membrane-bound neuraminidase/trans-sialidase; clone 19Y expressed in Schwann cell cytosol from pIRES2-DsRed-Express plasmid (protein, listed as Trypanosoma cruzi)
chain: MGKTVVVASRMFWLMFFVPLLLAICPSEPAYALAPGSSRVELFKRKNSTVPFEDKAGKVTERVVHSFRLPALVNVDGVMVAIADARYDTSNDNSLIDTVAKYSVDDGETWETQIAIKNSRVSSVSRVVDPTVIVKGNKLYVLVGSYYSSRSYWSSHGDARDWDILLAVGEVTKSTAGGKITASIKWGSPVSLKKFFPAEMEGMHTNQFLGGAGVAIVASNGNLVYPVQVTNKKKQVFSKIFYSEDDGKTWKFGKGRSDFGCSEPVALEWEGKLIINTRVDWKRRLVYESSDMEKPWVEAVGTVSRVWGPSPKSNQPGSQSSFTAVTIEGMRVMLFTHPLNFKGRWLRDRLNLWLTDNQRIYNVGQVSIGDENSAYSSVLYKDDKLYCLHEINTDEVYSLVFARLVGELRIIKSVLRSWKNWDSHLSSICTPADPAASSSESGCGPAVTTVGLVGFLSGNASQNVWEDAYRCVNASTANAERVRNGLKFAGVGGGALWPVSQQGQNQRYRFANHAFTLVASVTIHEAPRAASPLLGASLDSSGGKKLLGLSYDEKHQWQPIYGSTPVTPTGSWETGKRYHLVLTMANKIGSVYIDGELLEGSGQTVVPDGRTPDISHFYVGGYKRSDMPTISHVTVNNVLLYNRQLNTEEIRTLFLSQDLIGTEAHM

How the values were obtained:
[1] = tested on: Akt; assay: Akt-dependent phosphorylation of PDNF in Schwann cells (immunoprecipitation with TCN-2, Western blotting); assay type: cell-based, human; details: T. cruzi-infected Schwann cells treated with inhibitor for 24 hours
Protocol: To provide further evidence that the phosphorylation of PDNF depended on host […], T. cruzi-infected Schwann cells were treated with LY294002, a pharmacological inhibitor of PI3K, which phosphorylates and activates Akt (10), and with Akti VIII, a specific allosteric inhibitor of Akt that prevents the phosphorylation of Akt at Ser^473 and Thr^308, which is critical for the activation of Akt (25). Lysates of treated cells were assayed for phosphorylated Akt (pAkt) and, after immunoprecipitation with a PDNF-specific antibody, for the presence of Akt-phosphorylated substrates. […] The conclusion that PDNF was a substrate of Akt was further reinforced by in vitro kinase assays.
Cell monolayers were lysed with lysis buffer (20 mM tris-HCl (pH 7.5), 150 mM NaCl, 1 mM EDTA, 1% Triton X-100, 2.5 mM sodium pyrophosphate, 1 mM glycerophosphate, 1 mM Na3VO4, 1 μg/mL leupeptin and 1 mM phenylmethylsulfonyl fluoride (PMSF)) on ice for 10 min, cleared by centrifugation (12,000×g for 10 min at 4° C.) and immunoprecipitated with an antibody specific for Akt-phosphorylated substrate or with TCN-2 at 4° C. overnight Immunoprecipitates were collected with protein G-Sepharose for 2 hours at 4° C., washed with lysis buffer, and resuspended in SDS-sample buffer for SDS-PAGE and Western blotting analysis. In other experiments, total cell lysates (30 to 50 μg of protein) were resolved by SDS-PAGE, transferred to nitrocellulose membranes, and incubated with the relevant primary antibodies, followed by incubation with HRP-conjugated secondary antibody and visualization by ECL.

[2] = cited from earlier work

| Molecule | abundance of activated Akt (pAkt) [1] | abundance of unphosphorylated PDNF [1] | phosphorylation of PDNF [1] | half-life of the enzyme in the blood ([2]; with the C-terminal tandem repeat domain) | half-life of the enzyme in the blood ([2]; without stabilization by the C-terminal tandem repeat) |
| --- | --- | --- | --- | --- | --- |
| O=c1cc(N2CCOCC2)oc2c(-c3ccccc3)cccc12 [LY294002] | reduction in abundance of activated Akt | did not affect | inhibition of the phosphorylation of PDNF | – | – |
| B1 | – | – | – | about 35 hours | about 7 hours |
